Results are given in words; binding and its absence hold for the method and conditions named. Binding seen in cells or lysates may run through a third protein. Some results given as binding are weak or reduced against the parent protein; the word gives no strength.
What was measured:
[1] = target: endogenous Max (mouse (endogenous in mouse ESCs)) (UniProt P28574); assay: co-IP; immunoprecipitation of endogenous Max with specific antibody and protein G magnetic beads from micrococcal nuclease-treated nuclear extracts of stable ESC clones; overnight at 4°C; washed with digestion buffer with 0.1% NP-40; western blot; rabbit IgG as negative control
V5-tagged Myc (V5-Myc) = V5-tagged Myc (V5-Myc) (UniProt P01106); assay: co-IP; immunoprecipitation of exogenous tagged Myc with the corresponding anti-tag affinity beads from nuclear extracts of stable ESC clones; washed with digestion buffer with 0.1% NP-40; western blot for endogenous Max
[2] = target: biotin-tagged Myc (Bio-Myc) (UniProt P01106); assay: as above
[3] = target: FLAG-HA-tagged Myc (FLAG-HA-Myc) (UniProt P01106); assay: as above

Amino acid sequences for entries named in this document (tags omitted).
UniProt P28574: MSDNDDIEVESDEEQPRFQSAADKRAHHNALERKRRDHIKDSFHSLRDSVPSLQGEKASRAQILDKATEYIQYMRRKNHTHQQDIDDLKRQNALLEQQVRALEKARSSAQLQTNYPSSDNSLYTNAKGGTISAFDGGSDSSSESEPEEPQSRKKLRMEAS
UniProt P01106: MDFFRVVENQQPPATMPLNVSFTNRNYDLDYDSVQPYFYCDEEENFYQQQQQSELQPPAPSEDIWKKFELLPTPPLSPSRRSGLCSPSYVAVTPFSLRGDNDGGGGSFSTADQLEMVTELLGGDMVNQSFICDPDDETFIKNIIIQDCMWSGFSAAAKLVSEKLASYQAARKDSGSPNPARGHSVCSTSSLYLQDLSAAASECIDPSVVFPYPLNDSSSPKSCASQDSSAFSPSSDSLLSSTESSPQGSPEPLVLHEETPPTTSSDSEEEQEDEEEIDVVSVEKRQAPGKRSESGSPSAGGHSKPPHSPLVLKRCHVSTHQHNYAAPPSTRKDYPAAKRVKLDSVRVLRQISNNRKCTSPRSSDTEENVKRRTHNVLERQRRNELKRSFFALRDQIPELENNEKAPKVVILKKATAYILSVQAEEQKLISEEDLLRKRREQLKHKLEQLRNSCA

Row | binding [1] | binding (V5-tagged Myc (V5-Myc)) | binding [2] | binding [3] | Substance
1 | binds |  |  |  | FLAG-HA-tagged Myc (FLAG-HA-Myc) (from UniProt P01106 1-454)
2 | binds |  |  |  | V5-tagged Myc (V5-Myc) (from UniProt P01106 1-454)
3 | binds |  |  |  | biotin-tagged Myc (Bio-Myc) (from UniProt P01106 1-454)
4 |  | binds | binds | binds | endogenous Max (from UniProt P28574 1-160)

From publication PMC3931652
